{"source": "PubChem BioAssay AID1224826 (NIAID, 2016)", "purpose": "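Knock-downs that raise or lower Tnf reporter signal after endotoxin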 (primary screen)", "cell system": "RAW264.7 G9 macrophages from mouse bearing reporters for p65 (GFP) and the Tnf promoter (mCherry)", "reagent": "siRNA pool against mouse genes, 100 nM", "timing": "16 h of LPS stimulation, after 2 days of siRNA transfection", "treatment": "bacterial lipopolysaccharide (Salmonella minnesota R595), 10 ng/ml", "measurement": "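Nuclear mCherry signal of the Tnf promoter reporter measured by imaging after background removal, scaled to each plate median and turned into robust z-scores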", "direction": "Tnf reporter robust z-score: higher = stronger Tnf promoter reporter signal after LPS", "hit rule": "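a well counts as active at a score of -1.3 or below (Tlr4 knock-down control median) or above 3 (raised signal); controls and wells holding fewer than 50 cells are excluded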", "meaning of the calls": "active = Tnf reporter clearly lowered or raised; inactive = no clear change in Tnf reporter", "note": "This is a random part of about 17,000 reagents tested. About 1,110 of all reagents (6.6%) were called active. 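Active means lowered or raised reporter signal; replicate intensities are raw and not normalised per plate.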 Not all columns of the deposit are shown."}
{"Gene":"Cd209e","Tnf reporter robust z-score":-0.63,"fewer than 50 cells in well":"enough cells in well","Call":"inactive"}
{"Gene":"Dcbld1","Tnf reporter robust z-score":1.78,"fewer than 50 cells in well":"enough cells in well","Call":"inactive"}
{"Gene":"Nhlh2","Tnf reporter robust z-score":1.73,"fewer than 50 cells in well":"enough cells in well","Call":"inactive"}
{"Gene":"Cdkn2b","Tnf reporter robust z-score":-0.36,"fewer than 50 cells in well":"enough cells in well","Call":"inactive"}
{"Gene":"Spink1","Tnf reporter robust z-score":-0.79,"fewer than 50 cells in well":"enough cells in well","Call":"inactive"}
{"Gene":"Or6d15","fewer than 50 cells in well":"fewer than 50 cells per well; well left out of calls","Call":"inactive"}
{"Gene":"Gja1","Tnf reporter robust z-score":0.78,"fewer than 50 cells in well":"enough cells in well","Call":"inactive"}
{"Gene":"Daam2","Tnf reporter robust z-score":0.1,"fewer than 50 cells in well":"enough cells in well","Call":"inactive"}
{"Gene":"Lgals6","Tnf reporter robust z-score":-0.32,"fewer than 50 cells in well":"enough cells in well","Call":"inactive"}
{"Gene":"Dclre1a","Tnf reporter robust z-score":0.13,"fewer than 50 cells in well":"enough cells in well","Call":"inactive"}

Continued, starting with the last 3 of the part before.
{"Gene":"Daam2","Tnf reporter robust z-score":0.1,"fewer than 50 cells in well":"enough cells in well","Call":"inactive"}
{"Gene":"Lgals6","Tnf reporter robust z-score":-0.32,"fewer than 50 cells in well":"enough cells in well","Call":"inactive"}
{"Gene":"Dclre1a","Tnf reporter robust z-score":0.13,"fewer than 50 cells in well":"enough cells in well","Call":"inactive"}
{"Gene":"Ces2g","Tnf reporter robust z-score":0.04,"fewer than 50 cells in well":"enough cells in well","Call":"inactive"}
{"Gene":"Rprd1a","Tnf reporter robust z-score":-0.69,"fewer than 50 cells in well":"enough cells in well","Call":"inactive"}
{"Gene":"Fam151a","Tnf reporter robust z-score":-0.67,"fewer than 50 cells in well":"enough cells in well","Call":"inactive"}
{"Gene":"Wsb2","Tnf reporter robust z-score":2.64,"fewer than 50 cells in well":"enough cells in well","Call":"inactive"}
{"Gene":"Fpr-rs4","Tnf reporter robust z-score":0.23,"fewer than 50 cells in well":"enough cells in well","Call":"inactive"}
{"Gene":"Epb41l4a","Tnf reporter robust z-score":-1.18,"fewer than 50 cells in well":"enough cells in well","Call":"inactive"}
{"Gene":"Or5h17","Tnf reporter robust z-score":-0.55,"fewer than 50 cells in well":"enough cells in well","Call":"inactive"}
{"Gene":"Spp2","Tnf reporter robust z-score":6.54,"fewer than 50 cells in well":"enough cells in well","Call":"active"}
{"Gene":"Tulp4","fewer than 50 cells in well":"fewer than 50 cells per well; well left out of calls","Call":"inactive"}
{"Gene":"Vmn1r-ps8","Tnf reporter robust z-score":-0.64,"fewer than 50 cells in well":"enough cells in well","Call":"inactive"}
{"Gene":"Tut1","fewer than 50 cells in well":"fewer than 50 cells per well; well left out of calls","Call":"inactive"}
